# Reference: US6689357B2, “Non-obligate predatory bacterium Burkholderia casidae and uses thereof” (Virginia Tech Intellectual Properties, Inc., priority 1997, dated 2004)
# At least one structure is not confirmed: it was looked up by name or label, or the drawing left a doubt.
# Tested on: B. casidae strain 2.2N
# Assay type: cell-based, Burkholderia casidae
# Conditions: Sceptor Pseudomonas/Resistant MIC Panel
smiles,measurement,value
C[C@@H](O)[C@H]1C(=O)N2C(C(=O)O)=C(SCCN=CN)C[C@H]12 [Imipenem],strain 2.2N resistant or susceptible to the antibiotic,susceptible
